Measurements as given in PubChem BioAssay AID504648 (National Center for Advancing Translational Sciences (NCATS), 2011).
Among all 390,000 compounds or so, about 610 (0.16%) were called active. The shares of active, inactive and inconclusive entries below differ from those in the screen. Calls follow the shape of the dose curve; as a rule, active = well fitted inhibition curve with a large enough effect; inconclusive = small, poorly fitted or top-dose-only effect, or effect the other way, or another doubt; inactive = no such curve, though single readings can be large or run the other way. Potencies of inconclusive entries are doubtful fits and often do not repeat.
Potency is read from the fitted curve at half-maximal effect.

Assay: Nrf2 qHTS screen for inhibitors: counterscreen for cytotoxicity
Conditions: A549 ARE-Fluc cells, CellTiter-Fluor viability, 18-24 h; series mostly up to 46 µM
Procedure, shortened: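 Cytotoxicity counterscreen: CellTiter-Fluor fluorescence was measured in A549 ARE_Fluc cells after 18-24 h of compound exposure in a concentration series. The subsequent BugLite luminescent read reports ARE-luciferase activity.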
In the case of `CCN(CC)CCCCOc1ccccc1OC`, the Potency was inconclusive: 25.9 µM [activator, partial curve, poor fit].
With `Cn1nccc1C(=O)N/N=C/c1c(O)ccc2ccccc12` the Potency was inconclusive: 23.1 µM [falling, partial curve, poor fit].
For `CC(=O)c1cccc(NC(=O)c2ccc3c(=O)n4c(nc3c2)CCCCC4)c1`, the Potency was “inactive”.
For `COc1ccc(C(=O)NCc2nnc(SCC(=O)N3CCc4ccccc43)n2CCc2ccccc2)cc1`, the Potency was “inactive”.
In the case of `CC(C)=C[C@@H]1C[C@H](C)[C@H]2CC[C@H](C)c3c(O[C@@H]4O[C@@H](C)[C@@H](O)[C@@H](O)[C@@H]4O)c(O)c(C)c1c32`, the Potency was inconclusive: 29.1 µM [falling, single point].
For `CCC(C)Nc1nc2c(c(=O)n(C)c(=O)n2C)n1Cc1ccc(Cl)cc1` (configuration not stated), the Potency was inconclusive: 2.06 µM [activator, partial curve, poor fit].
For `Cc1noc(C)c1CSc1nc2[nH]ncc2c(=O)n1-c1ccccc1`, the Potency was inconclusive: 0.82 µM [falling, full curve].
With `Cc1ccc(N=Nc2ccc3ccccc3c2O)cc1` the Potency was inconclusive: 11.6 µM [falling, partial curve, poor fit].
With `Cc1c(C(c2ccc(O)cc2)c2c(C)n(C)n(-c3ccccc3)c2=O)c(=O)n(-c2ccccc2)n1C` the Potency was “inactive”.
In the case of `O=S(=O)(c1ccc2ccccc2c1)N1CCOCC1`, the Potency was “inactive”.
In the case of `Cc1ccc(-n2nc3c(N4CCC(C(=O)NCCc5cccs5)CC4)nnc(C)c3c2C)cc1`, the Potency was inconclusive: 23.1 µM [falling, single point].
With `N#Cc1nc(-c2cccs2)oc1NCc1ccc2c(c1)OCO2` the Potency was “inactive”.
With `CCOc1cccc(-c2nnc3n2N=C(c2cc(OC)ccc2OC)CS3)c1` the Potency was “inactive”.
In the case of `Cc1cn2c(=O)cc(COC(=O)c3ccc(NC(=O)COc4ccccc4C)cc3)nc2s1`, the Potency was “inactive”.
With `CCN(CC(=O)Nc1c(F)cccc1F)C(=O)c1cc(-c2cccs2)nn1-c1ccccc1` the Potency was inconclusive: 29.1 µM [falling, partial curve, poor fit].
In the case of `O=c1c2ccsc2ncn1Cc1cccc(C(F)(F)F)c1`, the Potency was inconclusive: 8.2 µM [activator, partial curve, poor fit].
With `CC(C)c1nnc(NC(=O)c2c(O)c3cccc4c3n(c2=O)CCC4)s1` the Potency was inconclusive: 16.4 µM [falling, single point].
With `Cc1nn(-c2ccccc2)c(N)c1N=Nc1cccc(S(=O)(=O)N2CCOCC2)c1` the Potency was inconclusive: 20.6 µM [falling, partial curve, poor fit].
In the case of `CCCCN(CCCC)S(=O)(=O)c1ccc(C(=O)Nc2nnc(CSC)o2)cc1`, the Potency was “inactive”.
For `CC(NC1CCCC1)C(=O)Nc1ccccc1-c1ccccc1` (configuration not stated), the Potency was inconclusive: 2.91 µM [activator, full curve].
With `COc1ccc(N2CCN(C(=O)COc3cccc4ccccc34)CC2)cc1` the Potency was inconclusive: 6.51 µM [falling, single point].
For `CC[n+]1c(/C=C(/C)SC)sc2ccccc21`, the Potency was inconclusive: 32.6 µM [falling, single point].
With `CCOc1cc(/C=C2\CCC/C(=C\c3cc(Cl)c(O)c(OCC)c3)C2=O)cc(Cl)c1O` the Potency was inconclusive: 18.4 µM [falling, single point].
In the case of `CCOC(=O)/C(C#N)=C/c1c(N2CCCCCC2)nc2ccccn2c1=O`, the Potency was inconclusive: 14.6 µM [falling, single point].
With `C=C(C)C(=O)Oc1ccc(N=Nc2ccc(C)cc2)ccc1=O` the Potency was inconclusive: 16.4 µM [falling, single point].
With `Cc1ccc(S(=O)(=O)Nc2ccccc2C(=O)Nc2nc(-c3ccc(F)cc3)cs2)cc1` the Potency was inconclusive: 6.51 µM [falling, full curve].
For `COc1cc(C=O)cc(OC)c1OS(=O)(=O)c1ccc(NC(C)=O)cc1`, the Potency was inconclusive: 9.2 µM [falling, partial curve, poor fit].
In the case of `CCN(CC)C(=O)C1CCCN(Cc2sccc2C)C1` (configuration not stated), the Potency was inconclusive: 0.58 µM [activator, partial curve, poor fit].
In the case of `CC(=NNC(=S)N1CCC1)c1ccccn1`, the Potency was inconclusive: 1.84 µM [falling, partial curve].
With `Cc1cc2c(cc1S(=O)(=O)NCc1ccc(F)cc1)n(C)c(=O)c(=O)n2C` the Potency was “inactive”.
With `COc1cccc(NC(=O)NC2(C(F)(F)F)Oc3ccccc3O2)c1` the Potency was inconclusive: 9.2 µM [falling, partial curve, poor fit].
For `COc1ccc2cc(CO)c(Cl)nc2c1`, the Potency was “inactive”.
In the case of `CC(C)CC(=O)NC(c1cccs1)c1ccc2cccnc2c1O` (configuration not stated), the Potency was inconclusive: 32.6 µM [falling, partial curve, poor fit].
For `Clc1cccc(N2CCN(Cc3nc(-c4ccccc4)no3)CC2)c1`, the Potency was inconclusive: 16.4 µM [activator, partial curve, poor fit].
With `CCOc1cc(/C=N/N=C(/N)c2nonc2N)cc(Br)c1OCc1ccc(Cl)cc1` the Potency was inconclusive: 23.1 µM [falling, single point].
With `Clc1ccc(-c2nc3ccccn3c2CN2CCCCC2)cc1` the Potency was inconclusive: 29.1 µM [activator, single point].
For `Cc1ccc(NC(=O)CSCC(=O)NCCc2ccccc2)cc1`, the Potency was inconclusive: 29.1 µM [activator, single point].
For `O=C1NC(=O)N2CCSC2(Cc2ccccc2)N1` (configuration not stated), the Potency was inconclusive: 25.9 µM [activator, partial curve, poor fit].
With `O=C(NCCc1ccc(Cl)cc1)c1c2c(nc3ccccc13)C(=O)N(C1CCCCC1)C2` the Potency was inconclusive: 29.1 µM [falling, single point].
For `Cn1nccc1C(=O)OCC(=O)Nc1nc(-c2ccccc2)cs1`, the Potency was “inactive”.
In the case of `O=S(=O)(NCCC(c1ccc(F)cc1)c1ccco1)c1ccccc1` (configuration not stated), the Potency was “inactive”.
For `CN1C(=O)CSc2ccc(NC(=O)NCCC3=CCCCC3)cc21`, the Potency was inconclusive: 20.6 µM [falling, single point].
For `COc1ccc(Cn2c(O)c(C=Nc3ccc(OC)cc3)c3ccccc3c2=O)cc1`, the Potency was inconclusive: 8.2 µM [falling, partial curve, poor fit].
With `CCN(C(=O)CN1C(=O)NC2(CCc3ccccc32)C1=O)C1CCS(=O)(=O)C1` (configuration not stated) the Potency was “inactive”.
In the case of `Nc1nc(OCC2CCCCC2)c2[nH]cnc2n1`, the Potency was inconclusive: 29.1 µM [falling, single point].
With `COc1ccc(C(=O)CN2CCN(c3cc(C)nc4ccccc34)CC2)cc1` the Potency was “inactive”.
With `O=C(CN1CCN(c2nc(-c3ccccc3)cs2)CC1)NNC(=O)c1ccc(Br)cc1` the Potency was “inactive”.
In the case of `Cc1ccc(C(=O)COC(=O)CCC(=O)Nc2cc(Cl)ccc2Cl)cc1[N+](=O)[O-]`, the Potency was inconclusive: 29.1 µM [falling, partial curve, poor fit].
For `COc1ccc(Nc2ccc3c(c2)=NC2(CCCCC2)[N+]=3[O-])cc1`, the Potency was inconclusive: 18.4 µM [falling, partial curve].
With `CC12C(=O)N(c3nccs3)C(=O)C1(C)C1CCC2O1` (configuration not stated) the Potency was inconclusive: 16.4 µM [falling, partial curve, poor fit].
In the case of `O=C1c2ccccc2NC(c2ccc(Cl)cc2Cl)N1Cc1ccccc1` (configuration not stated), the Potency was inconclusive: 29.1 µM [falling, partial curve, poor fit].
With `COc1cccc(-c2cc(C(F)(F)F)nc(-n3cncn3)n2)c1` the Potency was inconclusive: 14.6 µM [activator, partial curve, poor fit].
With `CC1=NN(c2ccccc2)C(=O)/C1=C\C=C1/N(C)c2ccccc2C1(C)C` the Potency was inconclusive: 16.4 µM [falling, partial curve, poor fit].
For `CCCN1CCN(c2ncnc3sc(C(=O)Nc4ccc(C(C)C)cc4)c(C)c23)CC1`, the Potency was inconclusive: 23.1 µM [falling, single point].
For `COc1cccc(-c2sc3ccc(OC)cc3c2-c2ccc(OCCN(C)C)cc2)c1`, the Potency was inconclusive: 29.1 µM [falling, single point].
With `C=CCn1c(O)c(N=NC(=S)Nc2ccc(OC)c(Cl)c2)c2ccccc21` the Potency was inconclusive: 20.6 µM [falling, single point].
In the case of `Cc1cc(C)n(-c2nc(Nc3ccccc3C(F)(F)F)nc(-n3nc(C)cc3C)n2)n1`, the Potency was inconclusive: 20.6 µM [falling, single point].
With `O=C(N/N=C/c1ccccn1)NC12CC3CC(CC(C3)C1)C2` the Potency was “inactive”.
In the case of `N#Cc1c(Nc2ccccc2)[n+]([O-])c2ccc(Cl)cc2[n+]1[O-]`, the Potency was inconclusive: 20.6 µM [falling, single point].
In the case of `Cc1ccc(NC(=O)CN2C(=O)c3ccccc3Sc3ccc(C(=O)N4CCOCC4)cc32)cc1F`, the Potency was “inactive”.
With `Cc1ccc(NC(=O)CSc2nnc(-c3ccc([N+](=O)[O-])cc3)o2)c(C)c1` the Potency was “inactive”.
With `CCCCCn1c(NCc2ccc(OC)cc2)nc2ccccc21` the Potency was inconclusive: 29.1 µM [falling, single point].
For `CN(C)c1ccc(C=NNC(=O)c2cccc3ccccc23)c(Cl)c1`, the Potency was inconclusive: 11.6 µM [falling, partial curve, poor fit].
In the case of `N#Cc1nc(Nc2cccc(-c3ccccc3)c2)nc(NC2CCCC2)n1`, the Potency was inconclusive: 29.1 µM [falling, partial curve, poor fit].
For `Oc1[nH]c2ccc(Br)cc2c1N=NC(=S)N1CCOCC1`, the Potency was inconclusive: 11.6 µM [falling, partial curve].
With `CCc1c(C2(O)CCCCC2)[nH]c2ccc(C(F)(F)F)cc12` the Potency was “inactive”.
With `O=C(NCc1ccncc1)c1ccc2nc(Cc3ccccc3F)oc2c1` the Potency was “inactive”.
